Measurements from the supplement of paper PMC11732987, “Enantioselective OTUD7B fragment discovery through chemoproteomics screening and high-throughput optimisation” (Communications Chemistry, 2025).
The list shows a part of the results. The data scatter; read single values as rough.

Sequences of proteins named here, by UniProt entry; tags and fusion partners are left off. A change or cut given only in a name is not applied to a line headed by its entry. Residues count along the entry.
UniProt Q9BTA9: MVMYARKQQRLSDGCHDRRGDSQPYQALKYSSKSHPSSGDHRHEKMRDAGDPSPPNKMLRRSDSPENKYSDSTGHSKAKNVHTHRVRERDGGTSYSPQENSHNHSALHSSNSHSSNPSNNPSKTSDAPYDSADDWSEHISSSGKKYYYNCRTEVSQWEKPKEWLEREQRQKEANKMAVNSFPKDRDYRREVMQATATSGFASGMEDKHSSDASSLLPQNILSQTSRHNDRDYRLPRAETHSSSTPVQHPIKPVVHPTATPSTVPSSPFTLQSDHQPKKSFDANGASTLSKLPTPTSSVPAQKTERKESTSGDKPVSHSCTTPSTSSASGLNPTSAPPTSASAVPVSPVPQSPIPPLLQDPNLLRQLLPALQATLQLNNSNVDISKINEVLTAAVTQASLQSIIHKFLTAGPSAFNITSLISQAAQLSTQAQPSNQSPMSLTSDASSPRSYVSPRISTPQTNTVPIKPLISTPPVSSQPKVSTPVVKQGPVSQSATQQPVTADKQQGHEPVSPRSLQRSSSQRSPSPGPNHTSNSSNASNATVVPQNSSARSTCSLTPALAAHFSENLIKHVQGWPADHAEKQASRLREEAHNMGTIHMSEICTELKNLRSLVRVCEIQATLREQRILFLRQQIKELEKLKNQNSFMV
UniProt Q15906: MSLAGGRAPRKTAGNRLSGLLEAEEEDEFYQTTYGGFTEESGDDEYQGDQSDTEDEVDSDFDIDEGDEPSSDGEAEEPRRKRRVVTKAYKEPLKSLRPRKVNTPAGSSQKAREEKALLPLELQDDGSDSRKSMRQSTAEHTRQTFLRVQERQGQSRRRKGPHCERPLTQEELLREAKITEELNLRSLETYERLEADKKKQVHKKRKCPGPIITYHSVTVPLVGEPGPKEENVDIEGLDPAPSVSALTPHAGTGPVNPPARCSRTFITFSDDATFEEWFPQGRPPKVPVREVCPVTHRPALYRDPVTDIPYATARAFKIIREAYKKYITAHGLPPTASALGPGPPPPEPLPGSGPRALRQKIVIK
UniProt Q562E7: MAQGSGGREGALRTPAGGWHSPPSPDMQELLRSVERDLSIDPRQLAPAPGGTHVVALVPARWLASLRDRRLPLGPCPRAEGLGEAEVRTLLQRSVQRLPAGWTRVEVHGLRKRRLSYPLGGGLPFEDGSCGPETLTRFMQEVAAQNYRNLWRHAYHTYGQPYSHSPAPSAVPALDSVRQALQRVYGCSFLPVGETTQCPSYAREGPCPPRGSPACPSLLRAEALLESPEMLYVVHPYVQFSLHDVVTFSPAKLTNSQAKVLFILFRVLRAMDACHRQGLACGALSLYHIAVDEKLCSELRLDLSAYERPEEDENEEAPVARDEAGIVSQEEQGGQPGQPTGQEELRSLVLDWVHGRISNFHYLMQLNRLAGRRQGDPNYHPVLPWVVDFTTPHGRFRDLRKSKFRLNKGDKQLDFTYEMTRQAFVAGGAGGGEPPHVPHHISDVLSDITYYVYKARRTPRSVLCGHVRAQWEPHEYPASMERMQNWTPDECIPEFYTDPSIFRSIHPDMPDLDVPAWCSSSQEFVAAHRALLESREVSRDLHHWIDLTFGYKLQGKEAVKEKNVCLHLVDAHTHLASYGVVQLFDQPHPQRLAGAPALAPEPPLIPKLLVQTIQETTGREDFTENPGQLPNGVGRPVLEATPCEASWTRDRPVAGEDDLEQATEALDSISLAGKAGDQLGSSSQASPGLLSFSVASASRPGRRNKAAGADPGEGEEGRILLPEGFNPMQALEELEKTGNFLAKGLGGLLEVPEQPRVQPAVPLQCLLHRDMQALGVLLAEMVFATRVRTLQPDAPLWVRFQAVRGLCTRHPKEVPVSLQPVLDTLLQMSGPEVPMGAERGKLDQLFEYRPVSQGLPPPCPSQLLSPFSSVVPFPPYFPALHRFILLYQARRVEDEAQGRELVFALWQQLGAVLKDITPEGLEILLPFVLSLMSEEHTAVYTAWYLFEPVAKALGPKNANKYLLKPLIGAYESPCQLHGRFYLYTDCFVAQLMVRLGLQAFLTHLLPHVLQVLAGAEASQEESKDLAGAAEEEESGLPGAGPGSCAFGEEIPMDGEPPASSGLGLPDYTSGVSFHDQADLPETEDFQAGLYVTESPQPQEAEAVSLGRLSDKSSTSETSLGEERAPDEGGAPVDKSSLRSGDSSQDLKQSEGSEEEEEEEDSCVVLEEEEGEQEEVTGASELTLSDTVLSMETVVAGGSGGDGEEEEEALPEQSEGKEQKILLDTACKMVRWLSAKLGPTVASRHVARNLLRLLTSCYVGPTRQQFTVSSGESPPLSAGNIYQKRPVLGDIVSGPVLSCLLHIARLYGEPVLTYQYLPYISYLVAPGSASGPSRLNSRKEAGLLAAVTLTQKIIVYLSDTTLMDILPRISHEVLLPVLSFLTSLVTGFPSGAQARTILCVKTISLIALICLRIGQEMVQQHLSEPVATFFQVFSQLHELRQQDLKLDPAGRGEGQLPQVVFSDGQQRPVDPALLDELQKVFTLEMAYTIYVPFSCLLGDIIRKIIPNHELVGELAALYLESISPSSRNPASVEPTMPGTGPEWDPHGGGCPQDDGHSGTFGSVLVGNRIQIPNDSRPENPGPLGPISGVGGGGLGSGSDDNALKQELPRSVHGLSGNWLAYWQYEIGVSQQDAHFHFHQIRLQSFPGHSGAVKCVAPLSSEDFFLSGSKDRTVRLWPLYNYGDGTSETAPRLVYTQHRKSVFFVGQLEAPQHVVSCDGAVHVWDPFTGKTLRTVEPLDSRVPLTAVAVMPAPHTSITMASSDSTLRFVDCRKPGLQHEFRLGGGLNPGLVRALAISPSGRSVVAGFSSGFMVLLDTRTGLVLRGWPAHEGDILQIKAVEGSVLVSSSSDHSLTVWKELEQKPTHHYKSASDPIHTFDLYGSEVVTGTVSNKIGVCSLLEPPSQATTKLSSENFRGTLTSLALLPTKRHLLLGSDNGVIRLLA
UniProt O14980, whole entry, looked up: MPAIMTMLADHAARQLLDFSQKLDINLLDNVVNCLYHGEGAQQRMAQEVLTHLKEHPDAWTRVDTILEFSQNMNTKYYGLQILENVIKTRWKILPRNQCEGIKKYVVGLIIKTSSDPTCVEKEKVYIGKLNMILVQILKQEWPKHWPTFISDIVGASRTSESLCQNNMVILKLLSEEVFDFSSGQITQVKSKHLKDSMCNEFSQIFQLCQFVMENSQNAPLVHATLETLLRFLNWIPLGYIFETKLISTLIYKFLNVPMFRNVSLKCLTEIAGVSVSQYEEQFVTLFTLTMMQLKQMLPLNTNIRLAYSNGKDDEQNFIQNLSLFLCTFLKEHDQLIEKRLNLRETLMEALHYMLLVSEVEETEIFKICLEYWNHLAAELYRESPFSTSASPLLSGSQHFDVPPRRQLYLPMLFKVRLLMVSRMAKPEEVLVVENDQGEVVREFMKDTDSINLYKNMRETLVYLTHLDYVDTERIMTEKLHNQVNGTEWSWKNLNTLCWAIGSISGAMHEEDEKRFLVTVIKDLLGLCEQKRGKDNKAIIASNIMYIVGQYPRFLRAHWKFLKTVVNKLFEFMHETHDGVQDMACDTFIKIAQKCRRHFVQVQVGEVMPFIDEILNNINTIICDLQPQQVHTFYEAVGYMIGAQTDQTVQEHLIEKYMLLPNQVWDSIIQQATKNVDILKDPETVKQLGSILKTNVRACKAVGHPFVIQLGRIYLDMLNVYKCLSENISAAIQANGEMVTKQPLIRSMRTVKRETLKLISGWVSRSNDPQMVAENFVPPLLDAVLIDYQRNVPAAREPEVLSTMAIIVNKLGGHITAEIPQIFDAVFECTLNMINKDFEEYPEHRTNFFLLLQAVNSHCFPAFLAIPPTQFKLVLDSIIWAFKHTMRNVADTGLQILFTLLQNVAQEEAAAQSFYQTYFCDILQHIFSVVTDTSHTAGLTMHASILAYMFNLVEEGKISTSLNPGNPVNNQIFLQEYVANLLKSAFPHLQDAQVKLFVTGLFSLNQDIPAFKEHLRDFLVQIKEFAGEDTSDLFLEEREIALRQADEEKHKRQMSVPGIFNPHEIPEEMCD
UniProt Q9ULM3, 332-364: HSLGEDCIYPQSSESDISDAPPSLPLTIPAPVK
UniProt O75152: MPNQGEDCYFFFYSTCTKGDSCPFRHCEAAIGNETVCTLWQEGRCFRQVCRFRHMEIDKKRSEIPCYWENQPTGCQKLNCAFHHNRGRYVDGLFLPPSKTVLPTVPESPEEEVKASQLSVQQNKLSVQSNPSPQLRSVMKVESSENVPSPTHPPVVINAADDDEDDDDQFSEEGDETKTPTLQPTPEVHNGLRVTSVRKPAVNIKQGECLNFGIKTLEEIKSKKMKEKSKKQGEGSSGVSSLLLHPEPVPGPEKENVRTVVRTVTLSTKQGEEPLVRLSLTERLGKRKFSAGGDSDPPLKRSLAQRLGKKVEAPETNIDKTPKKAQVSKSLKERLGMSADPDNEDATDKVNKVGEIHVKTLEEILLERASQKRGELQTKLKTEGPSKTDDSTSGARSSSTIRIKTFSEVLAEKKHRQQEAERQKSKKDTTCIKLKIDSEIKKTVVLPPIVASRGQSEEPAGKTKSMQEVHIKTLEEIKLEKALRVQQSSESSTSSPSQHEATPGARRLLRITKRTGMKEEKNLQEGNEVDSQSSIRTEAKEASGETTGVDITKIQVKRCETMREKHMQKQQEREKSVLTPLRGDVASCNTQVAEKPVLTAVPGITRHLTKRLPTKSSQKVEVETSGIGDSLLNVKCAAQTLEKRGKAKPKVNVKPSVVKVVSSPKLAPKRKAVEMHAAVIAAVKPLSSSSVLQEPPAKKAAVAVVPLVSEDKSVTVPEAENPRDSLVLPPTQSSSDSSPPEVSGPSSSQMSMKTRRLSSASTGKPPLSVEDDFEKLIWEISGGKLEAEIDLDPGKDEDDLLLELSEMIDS
UniProt Q9H869: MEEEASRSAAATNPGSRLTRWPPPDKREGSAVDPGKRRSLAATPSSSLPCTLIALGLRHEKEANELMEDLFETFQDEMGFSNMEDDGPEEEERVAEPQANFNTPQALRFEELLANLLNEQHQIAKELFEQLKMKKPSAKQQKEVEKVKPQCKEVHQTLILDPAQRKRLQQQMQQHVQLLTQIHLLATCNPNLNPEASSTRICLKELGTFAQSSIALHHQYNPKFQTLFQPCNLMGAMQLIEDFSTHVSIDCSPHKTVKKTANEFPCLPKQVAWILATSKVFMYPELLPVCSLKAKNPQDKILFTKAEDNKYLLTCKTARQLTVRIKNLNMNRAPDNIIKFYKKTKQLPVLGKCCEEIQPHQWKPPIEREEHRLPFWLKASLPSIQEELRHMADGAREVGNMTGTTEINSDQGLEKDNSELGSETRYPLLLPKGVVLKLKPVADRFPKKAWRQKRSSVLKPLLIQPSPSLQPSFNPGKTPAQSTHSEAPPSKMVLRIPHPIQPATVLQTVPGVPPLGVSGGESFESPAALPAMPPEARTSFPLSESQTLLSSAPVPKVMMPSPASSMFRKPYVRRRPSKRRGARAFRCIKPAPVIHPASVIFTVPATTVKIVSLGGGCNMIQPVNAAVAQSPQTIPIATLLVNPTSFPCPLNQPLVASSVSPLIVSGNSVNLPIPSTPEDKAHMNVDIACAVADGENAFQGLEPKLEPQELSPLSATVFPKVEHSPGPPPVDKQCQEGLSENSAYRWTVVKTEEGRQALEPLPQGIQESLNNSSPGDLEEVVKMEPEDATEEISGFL
UniProt Q9BW85: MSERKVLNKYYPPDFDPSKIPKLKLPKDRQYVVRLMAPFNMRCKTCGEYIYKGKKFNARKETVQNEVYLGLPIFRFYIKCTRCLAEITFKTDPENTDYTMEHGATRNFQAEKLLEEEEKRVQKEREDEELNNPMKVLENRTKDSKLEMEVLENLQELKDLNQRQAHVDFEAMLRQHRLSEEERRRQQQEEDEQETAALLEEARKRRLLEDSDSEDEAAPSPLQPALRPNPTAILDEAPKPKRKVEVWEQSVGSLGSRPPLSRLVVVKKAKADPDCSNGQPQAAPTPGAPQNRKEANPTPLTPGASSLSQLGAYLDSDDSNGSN
UniProt Q5T9L3: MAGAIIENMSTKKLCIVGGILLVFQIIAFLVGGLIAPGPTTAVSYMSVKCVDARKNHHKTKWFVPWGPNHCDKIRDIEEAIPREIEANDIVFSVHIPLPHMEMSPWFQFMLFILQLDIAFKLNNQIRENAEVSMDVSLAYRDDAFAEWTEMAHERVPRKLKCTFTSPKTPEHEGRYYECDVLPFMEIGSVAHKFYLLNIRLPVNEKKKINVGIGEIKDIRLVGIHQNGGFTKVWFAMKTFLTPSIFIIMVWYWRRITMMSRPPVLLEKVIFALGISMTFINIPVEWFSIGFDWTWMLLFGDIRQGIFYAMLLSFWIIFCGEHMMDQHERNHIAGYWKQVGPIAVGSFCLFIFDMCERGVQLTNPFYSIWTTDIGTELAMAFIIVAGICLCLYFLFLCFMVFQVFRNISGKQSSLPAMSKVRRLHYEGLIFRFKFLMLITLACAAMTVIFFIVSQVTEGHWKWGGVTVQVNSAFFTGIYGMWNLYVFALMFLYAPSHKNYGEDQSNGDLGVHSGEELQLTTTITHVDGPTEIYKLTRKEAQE

What follows are targets tested with ClCC(=O)N[C@@H]1CCCc2ccccc12 (assay: log2 mean competition ratio of IA-DTB cysteine labelling (DMSO/compound) (log2 ratio); higher = stronger cysteine engagement by compound). Conditions: 50 µM; treatment time: 4 h; cell line lysate: HEK293T.
Experimental: (§1)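 IA-DTB competitive cysteine chemoproteomics in HEK293T RIPA lysate. Lysates were treated with compound 29 or 30 at 50 or 200 µM for 4 h, then IA-DTB (500 µM, 1 h), trypsin-digested, NeutrAvidin-enriched and analysed by diaPASEF. Competition ratio = intensity DMSO / intensity compound (n=4 treated, n=64 DMSO); binding: mean log2 CR ≥ 1 and p ≤ 0.05 plus QC filters. Target is the cysteine site.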

Target	log2 mean competition ratio
WAC C15 (UniProt Q9BTA9)	-0.21
WSCD2 C509	-0.159
WDFY3 C16 (UniProt Q8IZQ1)	0.111
VPS35L C925 (UniProt Q7Z3J2)	-0.0278
WDR62 C826 (UniProt O43379)	0.348
WDFY1 C287 (UniProt Q8IWB7)	-0.243
WDR41 C340 (UniProt Q9HAD4)	-0.364
WDFY3 C3027 (UniProt Q8IZQ1)	-0.353
VPS51 C226 (UniProt Q9UID3)	-0.0112
VRK1 C205 (UniProt Q99986)	0.161
WNK3 C949 (UniProt Q9BYP7)	0.0521
VPS72 C292 (UniProt Q15906)	0.136
WDR81 C207 (UniProt Q562E7)	-0.138
WDFY3 C143 (UniProt Q8IZQ1)	-0.264
WDCP C302 (UniProt Q9H6R7)	0.0477
WDR81 C1653 (UniProt Q562E7)	0.241
WDR53 C63 (UniProt Q7Z5U6)	-0.322
XPO1 C119 (UniProt O14980)	-0.114
YEATS2 C338 (UniProt Q9ULM3)	0.307

Target	log2 mean competition ratio
WDSUB1 C410 (UniProt Q8N9V3)	-0.24
VPS4B C240 (UniProt O75351)	0.253
ZC3H11A C431 (UniProt O75152)	-0.264
ZBTB44 C167 (UniProt Q8NCP5)	-0.164
WDR19 C846 (UniProt Q8NEZ3)	0.0314
VPS35 C640	-0.172
YY1AP1 C734 (UniProt Q9H869)	0.0225
WDR1 C382 (UniProt O75083)	-0.431
YJU2 C83 (UniProt Q9BW85)	0.048
XPO1 C99 (UniProt O14980)	-0.048
ZBED4 C326 (UniProt O75132)	0.114
WDFY3 C575 (UniProt Q8IZQ1)	0.463
WDR12 C97 (UniProt Q9GZL7)	0.411
WDR81 C76 (UniProt Q562E7)	0.0206
WLS C71 (UniProt Q5T9L3)	0.0191
WDR3 C625 (UniProt Q9UNX4)	0.0415
WDFY3 C1945 (UniProt Q8IZQ1)	-0.0938
YDJC C119 (UniProt A8MPS7)	-0.18

Same assay, conditions: 200 µM; treatment time: 4 h; cell line lysate: HEK293T

Target	log2 mean competition ratio
WAC C15 (UniProt Q9BTA9)	0.218
WSCD2 C509	-0.185
WDFY3 C16 (UniProt Q8IZQ1)	0.0133
VPS35L C925 (UniProt Q7Z3J2)	0.292
WDR62 C826 (UniProt O43379)	0.47
WDFY1 C287 (UniProt Q8IWB7)	-0.253
WDR41 C340 (UniProt Q9HAD4)	0.205
WDFY3 C3027 (UniProt Q8IZQ1)	-0.0757
VPS51 C226 (UniProt Q9UID3)	0.0717
VRK1 C205 (UniProt Q99986)	-0.0627
WNK3 C949 (UniProt Q9BYP7)	-0.00235
VPS72 C292 (UniProt Q15906)	0.0288
WDR81 C207 (UniProt Q562E7)	0.0692
WDFY3 C143 (UniProt Q8IZQ1)	-0.191
WDCP C302 (UniProt Q9H6R7)	0.0714
WDR81 C1653 (UniProt Q562E7)	-0.406
WDR53 C63 (UniProt Q7Z5U6)	-0.192
XPO1 C119 (UniProt O14980)	-0.0869
YEATS2 C338 (UniProt Q9ULM3)	0.282

Target	log2 mean competition ratio
WDSUB1 C410 (UniProt Q8N9V3)	0.056
VPS4B C240 (UniProt O75351)	0.225
ZC3H11A C431 (UniProt O75152)	-0.0941
ZBTB44 C167 (UniProt Q8NCP5)	-0.462
WDR19 C846 (UniProt Q8NEZ3)	0.0162
VPS35 C640	0.464
YY1AP1 C734 (UniProt Q9H869)	-0.116
WDR1 C382 (UniProt O75083)	0.612
YJU2 C83 (UniProt Q9BW85)	-0.268
XPO1 C99 (UniProt O14980)	-0.0387
ZBED4 C326 (UniProt O75132)	0.388
WDFY3 C575 (UniProt Q8IZQ1)	0.125
WDR12 C97 (UniProt Q9GZL7)	-0.104
WDR81 C76 (UniProt Q562E7)	0.211
WLS C71 (UniProt Q5T9L3)	-0.0137
WDR3 C625 (UniProt Q9UNX4)	0.13
WDFY3 C1945 (UniProt Q8IZQ1)	0.00107
YDJC C119 (UniProt A8MPS7)	-0.0959

The targets below were run with ClCC(=O)N[C@H]1CCCc2ccccc12 in the same assay as above. Conditions: 50 µM; treatment time: 4 h; cell line lysate: HEK293T.
Experimental: as §1

Target	log2 mean competition ratio
WAC C15 (UniProt Q9BTA9)	-0.154
WSCD2 C509	-0.0696
WDFY3 C16 (UniProt Q8IZQ1)	-0.294
VPS35L C925 (UniProt Q7Z3J2)	-0.132
WDR62 C826 (UniProt O43379)	0.477
WDFY1 C287 (UniProt Q8IWB7)	0.341
WDR41 C340 (UniProt Q9HAD4)	-0.513
WDFY3 C3027 (UniProt Q8IZQ1)	-0.0405
VPS51 C226 (UniProt Q9UID3)	-0.133
VRK1 C205 (UniProt Q99986)	0.15
WNK3 C949 (UniProt Q9BYP7)	-0.0775
VPS72 C292 (UniProt Q15906)	0.289
WDR81 C207 (UniProt Q562E7)	-0.121
WDFY3 C143 (UniProt Q8IZQ1)	0.289
WDCP C302 (UniProt Q9H6R7)	-0.0909
WDR81 C1653 (UniProt Q562E7)	0.224
WDR53 C63 (UniProt Q7Z5U6)	-0.179
XPO1 C119 (UniProt O14980)	-0.154
YEATS2 C338 (UniProt Q9ULM3)	0.521

Target	log2 mean competition ratio
WDSUB1 C410 (UniProt Q8N9V3)	-0.0637
VPS4B C240 (UniProt O75351)	-0.00497
ZC3H11A C431 (UniProt O75152)	-0.186
ZBTB44 C167 (UniProt Q8NCP5)	0.0753
WDR19 C846 (UniProt Q8NEZ3)	-0.0274
VPS35 C640	-0.713
YY1AP1 C734 (UniProt Q9H869)	0.282
WDR1 C382 (UniProt O75083)	0.0666
YJU2 C83 (UniProt Q9BW85)	-0.327
XPO1 C99 (UniProt O14980)	0.0503
ZBED4 C326 (UniProt O75132)	0.265
WDFY3 C575 (UniProt Q8IZQ1)	0.427
WDR12 C97 (UniProt Q9GZL7)	-0.174
WDR81 C76 (UniProt Q562E7)	-0.186
WLS C71 (UniProt Q5T9L3)	0.171
WDR3 C625 (UniProt Q9UNX4)	-0.126
WDFY3 C1945 (UniProt Q8IZQ1)	-0.371
YDJC C119 (UniProt A8MPS7)	-0.432
